Source: doi:10.64898/2025.12.01.690311

Tested on: K18
Assay: BLI
Settings: Kd only in heat map; residues 244-372

Sequence	binding result
AAAAAAAAAAAAAAAAAAAAAAAAAAAAAAAAAAAAAAAA [A40]	binds
UUUUUUUUUUUUUUUUUUUUUUUUUUUUUUUUUUUUUUUU [U40]	binds

For at least one entry, the source does not settle the construct or the ends of the probe. At least one verdict rests on a figure or table, not on a statement of the authors.
